# Laboratory results published in PubChem BioAssay AID1347076 (National Center for Advancing Translational Sciences (NCATS), 2019).
# Out of some 400,000 compounds screened, about 13,000 (3.2%) were called active. Inconclusive means that the source gave no clear call. Such entries were picked first, then a sample of the others. Calls follow the shape of the dose curve; as a rule, active = well fitted cell-killing curve with a large enough effect; inconclusive = small, poorly fitted or top-dose-only effect, or effect the other way; inactive = flat fitted curve, though single readings scatter. Where the call is inconclusive, the potency comes from a doubtful curve fit.
# Test: qHTS assay for MDR1-selective chemotherapeutics: Primary screen using the drug-selected MDR subline cells KB-V1; also: nearly all actives have a fitted effect of over 60% in size
# Conditions: KB-V1 MDR cells viability, CellTiter-Glo, 72 h; activity change, negative = cytotoxicity: at 46.1 µM (top of the series)
# Summary of the method: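 Readout: CellTiter-Glo luminescence, 10 min after addition. Cells: KB-V1 MDR subline, 72 h at 37 degrees C with compound. Analysis: corrected, normalized data fitted to concentration-effect curves.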
# % is scaled to controls: 0 for no effect and ±100 for the full control effect; potency is read from the fitted curve at half-maximal effect.
Compound,"activity change, negative = cytotoxicity",Potency
Clc1ccc(-c2nnc(-c3ccccc3Cl)o2)cc1,inactive: 7.82%,–
CCOC(=O)N1CCN(C(=O)CN(c2ccc(Cl)c(C(F)(F)F)c2)S(C)(=O)=O)CC1,–,active: 23.1 µM
O=C(Nc1ccc(N2CCOCC2)c(Cl)c1)c1ncn[nH]1,–,"inconclusive: 11.6 µM [cytotoxic, partial curve]"
C=C1[C@@H](O)CN(Cc2ccc(OC)cc2)S1(=O)=O,inactive: 11.5%,–
COc1ccc(NC(=O)c2sc3nc(N4CCOCC4)c4c(c3c2N)CC(C(C)C)OC4)c(OC)c1 (stereo not given),–,"inconclusive: 29.1 µM [rising, single point]"
Cc1cc(C)c[n+](C(C)C(=O)c2ccc(-c3ccccc3)cc2)c1 (stereo not given),inactive: 2.36%,–
COc1cc(CCN2C(=O)c3cccc4cccc(c34)C2=O)c(S(=O)(=O)NCCCO)cc1OC,inactive: 0.949%,–
CN(C1CCCCC1)S(=O)(=O)c1ccc(S(=O)(=O)N2CCCC2)cc1,–,"inconclusive: 23.1 µM [cytotoxic, single point]"
COC(=O)CSc1[nH]c2cc(C)ccc2c1[N+](=O)[O-],inactive: 4.84%,–
Cc1cccnc1NC(=S)NC(=O)c1cncc(Br)c1,inactive: 16.9%,–
COc1ccccc1/C=C/C(C)=O,inactive: 0%,–
CCOc1ccc(NC(=O)N2CC(C)OC(C)C2)cc1 (stereo not given),–,"inconclusive: 4.61 µM [rising, partial curve]"
COc1ccc(CNc2oc(Cc3cccc4ccccc34)nc2C#N)cc1,–,"inconclusive: 20.6 µM [cytotoxic, single point]"
Cc1cc(F)ccc1NC1(c2ccccc2)C(=O)c2ccccc2C1=O,–,"inconclusive: 18.4 µM [rising, single point]"
O=C(N/N=C/c1ccc[nH]1)c1cc(-c2ccc(Cl)cc2)nc2ccccc12,–,"inconclusive: 29.1 µM [cytotoxic, single point]"
O=CNc1cc(-c2ccc(C(=O)NC3CC3)cc2)cn2c(-c3ccccc3)cnc12,–,"inconclusive: 18.4 µM [cytotoxic, single point]"
N=C1SCC(=O)N1c1ccc(Cl)cc1,–,"inconclusive: 29.1 µM [cytotoxic, single point]"
COc1ccc(CN(C)C(=O)c2oc3ccccc3c2CSC)cc1F,–,"inconclusive: 18.4 µM [cytotoxic, single point]"
Cc1ccccc1NS(=O)(=O)c1ccc(C(=O)N2CC(C)OC(C)C2)cc1 (stereo not given),–,"inconclusive: 16.4 µM [cytotoxic, single point]"
CNCCCCOc1ccc(C(C)(C)C)cc1Cl,–,"inconclusive: 23.1 µM [cytotoxic, single point]"
CCOc1ccc(-n2c(SCC(=O)N3CCCCCC3)nc3c([nH]c4ccccc43)c2=O)cc1,inactive: -17.5%,–
Cc1ccc(S(=O)(=O)N2CCOC2CNC(=O)C(=O)NCc2ccc3c(c2)OCO3)cc1 (stereo not given),inactive: 1.2%,–
Cc1ccc(S(=O)(=O)Nc2ccc(-c3csc(-c4ccccc4)n3)cc2)cc1,–,"inconclusive: 29.1 µM [cytotoxic, single point]"
CCCn1c(N)c(Sc2ccccc2)c(=O)n(CCC)c1=O,–,active: 13 µM
CC(=O)Nc1ccc(NC(=S)NC(=O)/C=C/c2ccc(Cl)cc2)cc1,inactive: 0.617%,–

# Retrieved by compound from above, three records:
Compound,"activity change, negative = cytotoxicity",Potency
N=C1SCC(=O)N1c1ccc(Cl)cc1,–,"inconclusive: 29.1 µM [cytotoxic, single point]"
Cc1ccccc1NS(=O)(=O)c1ccc(C(=O)N2CC(C)OC(C)C2)cc1 (stereo not given),–,"inconclusive: 16.4 µM [cytotoxic, single point]"
Cc1cc(F)ccc1NC1(c2ccccc2)C(=O)c2ccccc2C1=O,–,"inconclusive: 18.4 µM [rising, single point]"

# Next part.

Compound,"activity change, negative = cytotoxicity",Potency
Cc1ccc(OC(=O)CSc2nnc(-c3cccs3)o2)cc1C,inactive: 15.9%,–
O=C(N1CCCCC1)N1CCC(c2nc3ccccc3[nH]2)CC1,–,"inconclusive: 14.6 µM [cytotoxic, partial curve, poor fit]"
CCCCCSc1nnc2c(n1)OC(C)N(C(C)=O)c1ccccc1-2 (stereo not given),inactive: 4.53%,–
Cc1ccc2nc(-c3cc(-c4ccccc4)no3)cn2c1,inactive: -11%,–
CC1(c2ccc(Cl)cc2)NC(=O)N(CN2CCOCC2)C1=O (stereo not given),inactive: 8.89%,–
C(=C\CSc1nnnn1-c1ccccc1)/CSc1nnnn1-c1ccccc1,–,"inconclusive: 20.6 µM [cytotoxic, single point]"
Cc1cn([C@H]2C[C@H](O)[C@@H](CNC=O)O2)c(=O)[nH]c1=O,inactive: 20.5%,–
COc1ccccc1OCCn1c(=O)n(C)c2ccccc21,inactive: 4.22%,–
C=CCNC(=O)COc1ccc(S(=O)(=O)Nc2ccc(OCC)cc2)cc1,–,"inconclusive: 29.1 µM [cytotoxic, partial curve, poor fit]"
COCCN1CCn2c(nc3cc(NS(C)(=O)=O)ccc32)C1,–,"inconclusive: 6.51 µM [rising, full curve, poor fit]"
COC(=O)c1sccc1NC(=O)c1csc(C)c1,–,active: 16.4 µM
Cc1ccc(C(=O)Oc2c(S(=O)(=O)c3ccccc3)c(C)nn2-c2ccccc2)cc1,–,"inconclusive: 8.2 µM [rising, partial curve, poor fit]"
Cn1c(SCc2nc3ccccc3c(=O)[nH]2)nc2ccccc21,–,"inconclusive: 8.2 µM [cytotoxic, partial curve]"
CCOC(=O)CSc1nc(-c2ccc(Cl)cc2)cc(C(F)(F)F)c1C#N,–,"inconclusive: 29.1 µM [rising, single point]"
O=C(NC1CCS(=O)(=O)C1)c1cccs1 (stereo not given),–,"inconclusive: 20.6 µM [rising, partial curve, poor fit]"
Cc1ccc(S(=O)(=O)NC(CC(C)C)C(=O)N2CCC(C)CC2)cc1 (stereo not given),inactive: -13.3%,–
COc1cccc(C2CC(c3cccs3)=NN2S(C)(=O)=O)c1 (stereo not given),inactive: -22.3%,–
Cc1ccccc1N1C(=O)c2cc(S(N)(=O)=O)c(Cl)cc2NC1C (stereo not given),inactive: 22.4%,–
COc1ccc(-n2c(-c3ccc(C)cc3)cc3c2CC(C)(C)CC3=O)c(OC)c1,inactive: 0%,–
CCOC(=O)c1cccc(Nc2ncnc3ccc(C)cc23)c1,–,"inconclusive: 20.6 µM [cytotoxic, partial curve, poor fit]"
CC1=C(/C=C/C(C)=N\NC(=O)c2ccncc2)C(C)(C)CCC1,–,"inconclusive: 32.6 µM [cytotoxic, single point]"
COCCNC(=O)C(c1ccc(Cl)cc1)N(Cc1ccco1)C(=O)CCC(=O)Nc1ccccn1 (stereo not given),–,"inconclusive: 18.4 µM [cytotoxic, partial curve]"
Cc1ccn2c(=O)nc(SCC(=O)NCc3ccc4c(c3)OCO4)nc2c1,–,"inconclusive: 29.1 µM [rising, partial curve, poor fit]"
CC(=O)ON=C1C=CC(=C(C#N)c2ccccc2)C=C1,–,active: 7.31 µM
C=C(C)COc1ccc(-c2nc(N)nc(C)c2Oc2ccccc2OC)c(O)c1,inactive: 11.8%,–

Compound,"activity change, negative = cytotoxicity",Potency
CCOC(=O)C1=C(COC(=O)Cc2ccccc2)NC(=O)NC1C (stereo not given),inactive: 0%,–
Cc1cccc(N2CCN(C(=O)c3ccc4[nH]c(C)c(C)c4c3)CC2)c1C,–,active: 2.31 µM
CC(C)Cn1cnc2c(c(-c3ccccc3)c(-c3ccccc3)n2Cc2ccco2)c1=N,–,"inconclusive: 29.1 µM [cytotoxic, single point]"
O=C(COc1ncnc2cc([N+](=O)[O-])ccc12)N(CCc1ccccc1)Cc1ccccc1,–,"inconclusive: 3.66 µM [cytotoxic, partial curve, poor fit]"
COc1cc2c(cc1OC)C(NNC(=O)c1ccc(Br)o1)=NC(C)(C)C2,inactive: -28.7%,–
COc1ccccc1-c1cn[nH]c1-c1ccc(O)cc1O,inactive: 3.49%,–
Cc1ccc(NC(=O)COC(=O)CN2CCSC2=O)cc1Cl,inactive: 14.1%,–
O=C(Cc1ccc2c(c1)OCCO2)N1CCN(S(=O)(=O)c2cccc(Cl)c2Cl)CC1,–,active: 23.1 µM
COc1ccc(/C=C/c2c([N+](=O)[O-])c(=O)n(C)c(=O)n2C)cc1OC,inactive: 15.8%,–
Cc1cccc(C)c1-n1nnnc1C(c1ccccc1OC(F)(F)F)N1CCN(C/C=C/c2ccccc2)CC1 (stereo not given),–,"inconclusive: 20.6 µM [cytotoxic, single point]"
Cc1cc(C)c[n+](CC(=O)c2ccccc2)c1,–,"inconclusive: 23.1 µM [rising, single point]"
Cc1ccsc1C(=O)NC1CCCN(Cc2ccc(Cl)cc2)C1 (stereo not given),–,"inconclusive: 8.2 µM [cytotoxic, partial curve, poor fit]"
O=C(Nc1ccccc1N1CCOCC1)c1ccc(F)c(S(=O)(=O)N2CCOCC2)c1,inconclusive: -6.49%,–
CS(=O)(=O)c1ccc(C(=O)OCC(=O)NCc2cccs2)cc1[N+](=O)[O-],–,"inconclusive: 23.1 µM [cytotoxic, single point]"
Cc1cc(SCC(=O)Nc2cccc(S(=O)(=O)N3CCOCC3)c2)nc2ccccc12,inactive: -9.52%,–
COc1cc(C(=O)Nc2cccc(-n3cnnn3)c2)cc(Cl)c1OC,inactive: 4.4%,–
COc1ccc(C(C)=O)cc1CC(=O)N(Cc1ccccc1)c1ccccc1,–,"inconclusive: 20.6 µM [cytotoxic, partial curve]"
N#Cc1ccccc1S(=O)(=O)N1CCN(C(=O)c2cc(-c3ccccc3)nn2-c2ccccc2)CC1,–,"inconclusive: 8.2 µM [cytotoxic, partial curve, poor fit]"
C=Cn1cc[n+](CC(=O)c2ccc(Cl)c(Cl)c2)c1,–,"inconclusive: 16.4 µM [rising, single point]"
COc1ccc(-c2nn3c(-c4cc(-c5ccccc5)n[nH]4)nnc3s2)cc1,–,"inconclusive: 29.1 µM [cytotoxic, partial curve, poor fit]"
CCOC(=O)c1sc(=S)n(C)c1NC(=O)c1ccc(F)cc1,inactive: 10.8%,–
COCCCNC(=O)c1ccc2nc3ccccc3c(=O)n2c1,–,"inconclusive: 5.8 µM [cytotoxic, full curve]"
O=c1oc(-c2cccs2)nc2sc3c(c12)CCCC3,inactive: 9.17%,–
CC1CC(C)CN(C(=O)c2ccc3c(c2)N(Cc2ccccc2)CCS3)C1 (stereo not given),–,"inconclusive: 16.4 µM [cytotoxic, single point]"
COc1ccc(/C=N/NC(=O)c2ccco2)cc1Cn1nc(C)c([N+](=O)[O-])c1C,–,"inconclusive: 16.4 µM [cytotoxic, single point]"
